Assay results published in the supplement of paper PMC11006884.
Shown are results outside the selection of targets with a hit, which stands elsewhere. This is a noisy data set. Only a part is listed here, and it is no random draw.

Amino acid sequences for entries named in this document (tags omitted). A change or cut given only in a name is not applied to a line headed by its entry.
UniProt P09110: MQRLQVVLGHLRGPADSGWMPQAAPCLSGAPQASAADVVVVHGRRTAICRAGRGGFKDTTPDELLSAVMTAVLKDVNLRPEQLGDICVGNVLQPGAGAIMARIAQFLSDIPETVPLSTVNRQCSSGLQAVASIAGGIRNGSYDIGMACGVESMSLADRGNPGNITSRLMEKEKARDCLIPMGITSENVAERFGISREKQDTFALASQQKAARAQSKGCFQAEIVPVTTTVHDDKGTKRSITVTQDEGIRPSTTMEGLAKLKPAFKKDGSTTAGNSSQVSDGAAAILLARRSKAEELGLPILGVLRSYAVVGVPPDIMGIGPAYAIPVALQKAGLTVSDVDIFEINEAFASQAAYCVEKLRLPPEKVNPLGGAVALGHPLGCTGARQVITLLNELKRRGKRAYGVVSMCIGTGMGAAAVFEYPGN
UniProt P17812: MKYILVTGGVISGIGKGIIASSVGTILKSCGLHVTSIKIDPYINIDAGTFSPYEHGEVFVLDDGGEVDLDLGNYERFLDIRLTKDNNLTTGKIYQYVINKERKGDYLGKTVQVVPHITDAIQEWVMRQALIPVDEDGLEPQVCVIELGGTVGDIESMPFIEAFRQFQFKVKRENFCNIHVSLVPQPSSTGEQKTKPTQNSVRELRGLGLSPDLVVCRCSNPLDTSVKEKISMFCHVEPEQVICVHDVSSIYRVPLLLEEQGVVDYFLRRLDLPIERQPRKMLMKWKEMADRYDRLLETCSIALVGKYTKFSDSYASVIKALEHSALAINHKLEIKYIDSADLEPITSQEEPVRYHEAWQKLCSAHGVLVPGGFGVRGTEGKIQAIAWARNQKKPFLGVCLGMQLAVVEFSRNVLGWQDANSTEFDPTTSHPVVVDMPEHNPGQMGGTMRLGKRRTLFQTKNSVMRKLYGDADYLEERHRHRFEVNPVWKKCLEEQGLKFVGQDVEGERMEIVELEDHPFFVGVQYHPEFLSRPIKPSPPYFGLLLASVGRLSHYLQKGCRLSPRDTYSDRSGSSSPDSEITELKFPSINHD
UniProt P08574: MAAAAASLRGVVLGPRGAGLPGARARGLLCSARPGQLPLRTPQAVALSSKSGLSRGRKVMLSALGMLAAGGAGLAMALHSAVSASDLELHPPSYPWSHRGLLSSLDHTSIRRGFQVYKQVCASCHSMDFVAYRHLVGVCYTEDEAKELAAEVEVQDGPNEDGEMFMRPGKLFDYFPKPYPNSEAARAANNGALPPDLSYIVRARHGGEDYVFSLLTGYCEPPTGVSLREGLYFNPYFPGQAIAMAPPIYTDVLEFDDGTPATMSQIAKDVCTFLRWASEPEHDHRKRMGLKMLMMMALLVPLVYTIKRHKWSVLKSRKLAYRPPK
UniProt P15924: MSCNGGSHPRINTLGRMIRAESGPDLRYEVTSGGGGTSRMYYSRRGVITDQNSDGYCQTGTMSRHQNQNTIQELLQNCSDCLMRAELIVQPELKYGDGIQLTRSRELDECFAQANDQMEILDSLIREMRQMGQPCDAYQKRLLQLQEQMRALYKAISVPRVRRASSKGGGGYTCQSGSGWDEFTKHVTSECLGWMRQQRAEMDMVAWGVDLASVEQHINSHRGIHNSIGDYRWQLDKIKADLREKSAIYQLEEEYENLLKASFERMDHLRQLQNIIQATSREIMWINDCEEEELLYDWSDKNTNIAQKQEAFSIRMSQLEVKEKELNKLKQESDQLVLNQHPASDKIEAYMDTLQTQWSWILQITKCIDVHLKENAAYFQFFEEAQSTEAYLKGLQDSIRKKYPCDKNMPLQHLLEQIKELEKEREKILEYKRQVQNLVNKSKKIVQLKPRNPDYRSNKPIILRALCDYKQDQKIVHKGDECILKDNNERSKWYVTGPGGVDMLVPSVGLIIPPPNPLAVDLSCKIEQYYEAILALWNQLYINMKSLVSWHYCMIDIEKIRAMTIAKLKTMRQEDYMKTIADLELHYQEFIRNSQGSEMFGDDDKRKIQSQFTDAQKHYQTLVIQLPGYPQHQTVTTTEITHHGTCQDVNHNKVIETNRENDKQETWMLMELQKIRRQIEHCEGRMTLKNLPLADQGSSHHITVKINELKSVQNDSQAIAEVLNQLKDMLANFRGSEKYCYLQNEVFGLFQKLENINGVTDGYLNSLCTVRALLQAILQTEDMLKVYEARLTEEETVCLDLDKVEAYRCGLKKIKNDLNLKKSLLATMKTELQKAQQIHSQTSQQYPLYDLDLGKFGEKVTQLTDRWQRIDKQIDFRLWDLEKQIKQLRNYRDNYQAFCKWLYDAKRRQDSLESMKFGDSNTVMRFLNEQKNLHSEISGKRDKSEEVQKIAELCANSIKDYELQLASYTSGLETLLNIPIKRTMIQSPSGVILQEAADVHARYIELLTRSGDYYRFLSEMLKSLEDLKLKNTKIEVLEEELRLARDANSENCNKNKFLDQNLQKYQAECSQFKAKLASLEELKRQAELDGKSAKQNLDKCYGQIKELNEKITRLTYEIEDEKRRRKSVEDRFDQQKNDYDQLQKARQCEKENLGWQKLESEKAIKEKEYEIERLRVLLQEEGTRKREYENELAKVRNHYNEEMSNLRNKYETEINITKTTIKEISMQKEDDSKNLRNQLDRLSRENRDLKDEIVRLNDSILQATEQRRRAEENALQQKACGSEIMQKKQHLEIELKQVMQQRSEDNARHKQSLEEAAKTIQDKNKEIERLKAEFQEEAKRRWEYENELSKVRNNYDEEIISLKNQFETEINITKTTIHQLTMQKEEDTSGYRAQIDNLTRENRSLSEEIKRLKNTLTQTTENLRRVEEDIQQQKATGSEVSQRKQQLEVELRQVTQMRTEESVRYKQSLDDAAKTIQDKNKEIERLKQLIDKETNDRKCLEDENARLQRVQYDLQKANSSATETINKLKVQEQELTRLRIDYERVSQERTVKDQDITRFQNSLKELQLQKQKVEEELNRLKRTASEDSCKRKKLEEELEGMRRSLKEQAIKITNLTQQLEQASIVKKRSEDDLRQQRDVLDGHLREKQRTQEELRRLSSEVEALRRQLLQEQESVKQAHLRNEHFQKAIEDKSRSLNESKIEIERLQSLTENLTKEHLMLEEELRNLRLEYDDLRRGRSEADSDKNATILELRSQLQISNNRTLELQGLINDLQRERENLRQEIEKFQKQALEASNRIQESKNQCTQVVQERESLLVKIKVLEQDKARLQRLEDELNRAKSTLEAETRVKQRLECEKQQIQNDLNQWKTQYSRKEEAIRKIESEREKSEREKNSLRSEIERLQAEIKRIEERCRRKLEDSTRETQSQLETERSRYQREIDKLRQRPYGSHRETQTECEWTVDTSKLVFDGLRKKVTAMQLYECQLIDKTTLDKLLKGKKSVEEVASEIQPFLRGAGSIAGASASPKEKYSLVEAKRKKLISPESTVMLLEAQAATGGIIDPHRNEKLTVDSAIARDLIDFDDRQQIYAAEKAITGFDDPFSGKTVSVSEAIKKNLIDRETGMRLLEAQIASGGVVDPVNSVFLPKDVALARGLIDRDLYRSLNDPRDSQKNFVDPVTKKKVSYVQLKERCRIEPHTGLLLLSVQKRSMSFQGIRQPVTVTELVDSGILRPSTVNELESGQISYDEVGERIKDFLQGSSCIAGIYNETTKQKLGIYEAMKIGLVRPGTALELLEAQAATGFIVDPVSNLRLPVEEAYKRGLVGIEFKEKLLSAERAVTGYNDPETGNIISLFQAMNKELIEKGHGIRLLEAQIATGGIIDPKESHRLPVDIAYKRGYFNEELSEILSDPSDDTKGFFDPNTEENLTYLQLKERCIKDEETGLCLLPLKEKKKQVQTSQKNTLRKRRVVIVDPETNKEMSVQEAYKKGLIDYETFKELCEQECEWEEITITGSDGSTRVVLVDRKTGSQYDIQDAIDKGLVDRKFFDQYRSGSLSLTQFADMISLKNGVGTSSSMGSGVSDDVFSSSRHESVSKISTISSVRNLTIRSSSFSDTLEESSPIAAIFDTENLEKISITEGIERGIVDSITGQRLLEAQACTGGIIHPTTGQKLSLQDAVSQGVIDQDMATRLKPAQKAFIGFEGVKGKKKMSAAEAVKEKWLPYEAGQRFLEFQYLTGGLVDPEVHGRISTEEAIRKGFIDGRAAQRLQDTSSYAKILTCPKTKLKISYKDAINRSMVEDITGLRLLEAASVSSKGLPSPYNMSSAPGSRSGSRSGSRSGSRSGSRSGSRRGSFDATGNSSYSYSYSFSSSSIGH
UniProt P08238, whole entry, looked up: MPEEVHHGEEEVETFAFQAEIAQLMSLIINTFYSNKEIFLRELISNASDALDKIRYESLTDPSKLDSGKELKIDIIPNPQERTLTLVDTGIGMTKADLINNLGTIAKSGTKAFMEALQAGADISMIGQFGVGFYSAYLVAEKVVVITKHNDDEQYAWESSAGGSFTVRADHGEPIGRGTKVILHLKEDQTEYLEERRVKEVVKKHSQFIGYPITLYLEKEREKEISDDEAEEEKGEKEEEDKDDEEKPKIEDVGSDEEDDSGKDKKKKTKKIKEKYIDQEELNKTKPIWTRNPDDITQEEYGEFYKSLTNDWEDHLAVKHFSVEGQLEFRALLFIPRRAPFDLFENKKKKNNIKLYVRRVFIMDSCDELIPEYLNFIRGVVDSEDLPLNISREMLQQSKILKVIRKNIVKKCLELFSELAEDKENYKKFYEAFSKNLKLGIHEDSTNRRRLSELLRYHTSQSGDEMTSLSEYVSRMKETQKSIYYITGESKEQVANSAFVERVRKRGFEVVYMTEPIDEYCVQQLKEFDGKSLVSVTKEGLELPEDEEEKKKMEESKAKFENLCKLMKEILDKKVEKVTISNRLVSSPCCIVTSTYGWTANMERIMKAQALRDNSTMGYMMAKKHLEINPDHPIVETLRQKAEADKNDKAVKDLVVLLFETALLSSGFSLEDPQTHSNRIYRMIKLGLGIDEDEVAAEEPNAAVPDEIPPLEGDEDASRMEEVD
UniProt P09651: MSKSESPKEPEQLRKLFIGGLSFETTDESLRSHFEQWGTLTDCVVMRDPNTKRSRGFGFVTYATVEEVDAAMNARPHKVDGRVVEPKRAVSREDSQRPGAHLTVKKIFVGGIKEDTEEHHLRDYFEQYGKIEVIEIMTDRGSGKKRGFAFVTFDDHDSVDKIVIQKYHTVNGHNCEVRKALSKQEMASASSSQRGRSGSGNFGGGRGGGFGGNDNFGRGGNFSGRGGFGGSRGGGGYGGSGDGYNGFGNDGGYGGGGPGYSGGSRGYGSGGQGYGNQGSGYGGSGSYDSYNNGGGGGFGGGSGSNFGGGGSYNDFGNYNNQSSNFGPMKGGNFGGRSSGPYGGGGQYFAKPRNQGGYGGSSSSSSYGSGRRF
UniProt P07919: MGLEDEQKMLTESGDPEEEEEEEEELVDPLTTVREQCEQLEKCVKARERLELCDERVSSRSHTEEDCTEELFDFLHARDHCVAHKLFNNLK
UniProt P14735, whole entry, looked up: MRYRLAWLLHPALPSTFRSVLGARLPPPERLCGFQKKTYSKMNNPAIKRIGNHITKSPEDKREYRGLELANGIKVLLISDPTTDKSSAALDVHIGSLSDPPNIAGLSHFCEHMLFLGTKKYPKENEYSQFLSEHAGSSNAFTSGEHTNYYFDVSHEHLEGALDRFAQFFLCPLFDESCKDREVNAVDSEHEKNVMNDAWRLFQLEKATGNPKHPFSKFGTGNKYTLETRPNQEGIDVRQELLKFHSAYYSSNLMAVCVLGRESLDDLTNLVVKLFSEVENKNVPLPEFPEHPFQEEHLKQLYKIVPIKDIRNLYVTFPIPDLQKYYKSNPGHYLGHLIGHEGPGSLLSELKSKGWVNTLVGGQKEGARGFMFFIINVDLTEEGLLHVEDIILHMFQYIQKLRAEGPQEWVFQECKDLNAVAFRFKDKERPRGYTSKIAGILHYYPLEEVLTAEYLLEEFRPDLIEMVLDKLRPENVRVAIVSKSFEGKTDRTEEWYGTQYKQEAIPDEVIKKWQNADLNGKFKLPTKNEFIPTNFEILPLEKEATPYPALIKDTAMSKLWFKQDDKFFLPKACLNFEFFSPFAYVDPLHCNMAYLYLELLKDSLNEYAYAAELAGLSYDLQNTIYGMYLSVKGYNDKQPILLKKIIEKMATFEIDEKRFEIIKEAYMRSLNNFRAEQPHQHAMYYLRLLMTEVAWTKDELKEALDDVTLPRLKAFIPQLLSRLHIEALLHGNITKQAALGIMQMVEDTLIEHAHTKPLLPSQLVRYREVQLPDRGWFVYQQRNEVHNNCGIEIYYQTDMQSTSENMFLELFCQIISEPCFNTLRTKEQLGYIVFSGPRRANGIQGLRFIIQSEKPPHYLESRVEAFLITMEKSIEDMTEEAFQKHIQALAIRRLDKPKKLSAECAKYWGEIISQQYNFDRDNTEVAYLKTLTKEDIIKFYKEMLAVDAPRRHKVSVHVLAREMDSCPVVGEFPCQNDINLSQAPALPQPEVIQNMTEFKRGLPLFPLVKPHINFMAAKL

What follows are targets tested with COC(=O)/C=C/c1ccccc1 [methyl cinnamate] (assay: log2 ratio of iodoacetamide-alkyne labeling of the cysteine site, DMSO over compound (competition); higher = stronger covalent engagement of the cysteine by the compound, active = 1 or more). Conditions: 500 µM; treatment time 1 h; system: HEK293T cell lysate.
Outline: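 HEK293T lysate (2 mg/mL) was treated with DMSO or electrophile (500 µM, 1 h, ambient temperature), then iodoacetamide alkyne (1 h), clicked to sCIP-TMT reagents, pooled, trypsin-digested overnight at 37 °C, streptavidin-enriched and acid-eluted. Peptides were run on Orbitrap Eclipse LC-MS/MS with FAIMS and quantified in FragPipe. The log2 competition ratio per cysteine is mean control-channel over mean compound-channel reporter intensity. Duplicate channels and three replicates were used, and cysteines quantified in only one replicate were excluded.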

Which “log2 ratio of iodoacetamide-alkyne labeling” value (shortened to “log2 ratio”) does the source give for U2AF1L5 C154 (UniProt P0DN76) here?
The value was inactive: -0.14.

With ACAA1 C381 (UniProt P09110) as the target, how does the “log2 ratio” value read?
The value was inactive: 0.0738.

Which “log2 ratio” value does the source give for IGF2R C1408 (UniProt P11717) here?
Its value is inactive: 0.318.

Which “log2 ratio” value does the source give for IRF2 C83 (UniProt P14316) here?
The value was inactive: -0.113.

How did the “log2 ratio” value turn out when GSPT1 C261 (UniProt P15170) was run?
Its value is inactive: 0.146.

UniProt P17812_C216 was tested. Which “log2 ratio” value did it give?
Its value is inactive: -0.0432.

How did the “log2 ratio” value turn out when LAMC1 C351 (UniProt P11047) was run?
Its value is inactive: 0.11.

PABPC1 C339 (UniProt P11940) was tested. Which “log2 ratio” value did it give?
Its value is inactive: 0.167.

Which “log2 ratio” value does the source give for RPS2 C188 (UniProt P15880) here?
Its value is inactive: 0.0511.

For RNH1 C96 (UniProt P13489), which “log2 ratio” value is on record?
Its value is inactive: 0.331.

With LAMC1 C1600 (UniProt P11047) as the target, how does the “log2 ratio” value read?
Its value is inactive: 0.227.

Which “log2 ratio” value does the source give for G6PD C385 (UniProt P11413) here?
The value was inactive: 0.152.

With IMPDH2 C339 (UniProt P12268) as the target, how does the “log2 ratio” value read?
The value was inactive: 0.292.

For ARAF C597 (UniProt P10398), which “log2 ratio” value is on record?
The value was inactive: 0.214.

Which “log2 ratio” value does the source give for ARAF C192 (UniProt P10398) here?
The value was inactive: -0.101.

CYC1 C219 (UniProt P08574) was tested. Which “log2 ratio” value did it give?
The value was inactive: -0.0229.

DSP C1957 (UniProt P15924) was tested. Which “log2 ratio” value did it give?
The value was inactive: 0.258.

With HSPD1 C442 (UniProt P10809) as the target, how does the “log2 ratio” value read?
The value was inactive: 0.228.

For UniProt P17252_C499, which “log2 ratio” value is on record?
Its value is inactive: -0.19.

For FH C333 (UniProt P07954), which “log2 ratio” value is on record?
Its value is inactive: 0.387.

With ATF7 C61 (UniProt P17544) as the target, how does the “log2 ratio” value read?
Its value is inactive: -0.304.

HSP90AB1 C412 (UniProt P08238) was tested. Which “log2 ratio” value did it give?
Its value is inactive: -0.033.

PDIA4 C206 (UniProt P13667) was tested. Which “log2 ratio” value did it give?
Its value is inactive: 0.557.

With HNRNPA1 C175 (UniProt P09651) as the target, how does the “log2 ratio” value read?
The value was inactive: 0.0363.

With UQCRH C37 (UniProt P07919) as the target, how does the “log2 ratio” value read?
The value was inactive: 0.344.

Which “log2 ratio” value does the source give for SP1 C68 (UniProt P08047) here?
Its value is inactive: 0.434.

IDE C974 (UniProt P14735) was tested. Which “log2 ratio” value did it give?
Its value is inactive: 0.103.

RPS2 C222 (UniProt P15880) was tested. Which “log2 ratio” value did it give?
Its value is inactive: 0.0555.

How did the “log2 ratio” value turn out when LAMB1 C1785 (UniProt P07942) was run?
Its value is inactive: 0.274.

With EEF2 C290 (UniProt P13639) as the target, how does the “log2 ratio” value read?
Its value is inactive: -0.129.

With EEF2 C567 (UniProt P13639) as the target, how does the “log2 ratio” value read?
Its value is inactive: 0.0751.

How did the “log2 ratio” value turn out when Q95604 C188 (UniProt P10321) was run?
Its value is inactive: 0.00524.

For DDX5 C191 (UniProt P17844), which “log2 ratio” value is on record?
Its value is inactive: -0.0155.

For HSP90AA1 C374 (UniProt P07900), which “log2 ratio” value is on record?
The value was inactive: -0.108.

Which “log2 ratio” value does the source give for DARS C203 (UniProt P14868) here?
Its value is inactive: 0.122.

For U2AF1L5 C102 (UniProt P0DN76), which “log2 ratio” value is on record?
Its value is inactive: -0.0977.

Which “log2 ratio” value does the source give for PCNA C135 (UniProt P12004) here?
Its value is inactive: 0.0515.

Which “log2 ratio” value does the source give for ACADM C159 (UniProt P11310) here?
Its value is inactive: 0.342.
